Laboratory results: the supplement of paper PMC4604168 (melanoma cell lines)
Some of the results follow. Single values are uncertain, as repeats are few or missing.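 The apoptosis fraction was the count of cleaved-PARP antibody-stained nuclei relative to all DNA-stained nuclei, imaged in 1,536-well plates. Screening doses were set so most cells survived, and baseline and induced cleaved-PARP levels vary greatly across cell lines.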

System: UACC257
Experiment: cleaved PARP positive nuclei fraction relative to DMSO control; melanoma cells; higher = more apoptosis
Conditions: library dose: low library concentration; 72 h

| SMILES | cleaved PARP positive nuclei fraction [%] |
| --- | --- |
| CCN(CC)CCCCNc1ncc2cc(-c3cc(OC)cc(OC)c3)c(NC(=O)NC(C)(C)C)nc2n1 + COc1cc(N2CCC(N3CCN(C)CC3)CC2)ccc1Nc1ncc(Cl)c(Nc2ccccc2S(=O)(=O)C(C)C)n1 [NVP-TAE684] (first compound 0.1 µM, partner dose 0.08 µM) | 77.6 |
| O=C(Nc1ccccc1)c1cc([N+](=O)[O-])ccc1Cl + Cc1cc([N+](=O)[O-])ccc1NS(=O)(=O)c1cc(Cl)ccc1Cl [FH535] (first compound 2 µM, partner dose 1 µM) | 97.7 |
| COc1ccc(-c2ccc3c(N4CCOCC4)nc(N4C[C@@H](C)O[C@@H](C)C4)nc3n2)cc1CO + Cn1cc(/C=C2\C(=O)Nc3cccnc32)c2ccccc21 [GW441756] (first compound 0.02 µM, partner dose 0.4 µM) | 208 |
| COc1cc2c(Oc3ccc4[nH]c(C)cc4c3F)ncnc2cc1OCCCN1CCCC1 [cediranib] + O=c1cc(-c2cccc3c2Sc2ccccc2S3)oc(N2CCOCC2)c1 [KU55933] (first compound 0.4 µM, partner dose 1 µM) | 15.8 |
